Experimental data from patent US20130330343A1 (AbbVie / Abbott, published 2013).
Results are given in words; binding and its absence hold for the method and conditions named. Some results given as binding are weak or reduced against the parent protein; the word gives no strength. For part of these data: Sequences can lack the tags named with a protein.

T1: R&D hRGMc-His (human, UniProt Q6ZVN8 36-400)
T1 construct: Bought (R&D); not shown: His tag
T1 sequence: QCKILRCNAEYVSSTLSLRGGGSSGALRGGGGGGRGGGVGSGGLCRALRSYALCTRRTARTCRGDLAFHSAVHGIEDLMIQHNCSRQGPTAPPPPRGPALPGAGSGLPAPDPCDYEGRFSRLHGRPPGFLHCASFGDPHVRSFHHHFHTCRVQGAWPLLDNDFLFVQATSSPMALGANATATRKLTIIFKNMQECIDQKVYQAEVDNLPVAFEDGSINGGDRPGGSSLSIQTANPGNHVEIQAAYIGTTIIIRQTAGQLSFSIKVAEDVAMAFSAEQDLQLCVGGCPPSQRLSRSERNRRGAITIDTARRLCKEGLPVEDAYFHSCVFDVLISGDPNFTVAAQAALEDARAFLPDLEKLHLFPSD

T2: human RGMc (human, UniProt Q6ZVN8 36-400, limits assumed)
T2 construct: also called hRGMc
T2 sequence: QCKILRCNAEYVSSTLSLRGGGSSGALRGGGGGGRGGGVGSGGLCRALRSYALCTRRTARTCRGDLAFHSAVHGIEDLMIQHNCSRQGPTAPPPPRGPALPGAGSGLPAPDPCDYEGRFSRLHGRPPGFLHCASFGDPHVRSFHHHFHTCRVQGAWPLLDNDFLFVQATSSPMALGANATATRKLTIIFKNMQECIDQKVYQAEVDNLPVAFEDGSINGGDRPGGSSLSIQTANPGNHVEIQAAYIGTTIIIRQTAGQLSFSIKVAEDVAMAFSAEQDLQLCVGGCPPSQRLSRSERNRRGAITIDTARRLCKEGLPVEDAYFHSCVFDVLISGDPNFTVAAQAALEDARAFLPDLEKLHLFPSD

T3: human RGMa (human, UniProt Q96B86 48-422, limits assumed)
T3 construct: also called hRGMa; h RGMa
T3 sequence (looked up): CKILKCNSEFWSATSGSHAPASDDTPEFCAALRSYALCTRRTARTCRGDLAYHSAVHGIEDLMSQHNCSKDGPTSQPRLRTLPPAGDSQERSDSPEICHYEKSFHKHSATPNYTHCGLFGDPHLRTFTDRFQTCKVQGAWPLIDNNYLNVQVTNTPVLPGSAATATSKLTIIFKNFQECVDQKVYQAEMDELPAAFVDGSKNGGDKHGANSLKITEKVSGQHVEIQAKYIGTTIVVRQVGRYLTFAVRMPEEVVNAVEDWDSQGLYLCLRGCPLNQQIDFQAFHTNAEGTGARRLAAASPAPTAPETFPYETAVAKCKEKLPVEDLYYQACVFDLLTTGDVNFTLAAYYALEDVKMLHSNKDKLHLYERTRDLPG


How the values were obtained:
[1] = biological target: T1, R&D hRGMc-His; test: R&D hRGMc-His ELISA
[2] = biological target: T2, human RGMc; test: human RGMc direct ELISA
[3] = biological target: T3, human RGMa; test: hRGMa indirect ELISA; Ab captured by anti-human Fc, biotin hRGMa titrated
[4] = biological target: T3, human RGMa; test: hRGMa binding (ELISA)

binding [1]	binding [2]	binding [3]	binding [4]	Binder
binds	binds	–	–	RGMA-h5F9pJP297/pJP298 hIgG1/K mut (antibody, V domains shown, Tested as IgG; also called h5F9.AM8; H5F9AM.8) VH: EVQLVESGGGLVQPGGSLRLSCAASGFTFSNYGMNWIRQAPGKGLEWIGMIYYDSSEKHYADSVKGRFTISRDNSKNTLYLQMNSLRAEDTAVYYCAKGTTPDYWGQGTMVTVSS VL: DVVLTQSPLSLPVTLGQPASISCRSSQSLEESDGYTFLHWFQQRPGQSPRLLIYEVSTRFSGVPDRFSGSGSGTDFTLKISRVEAEDVGVYYCFQATHDPLTFGQGTKLEIK
binds	binds	binds	binds	RGMA-h5F9pJP297/pJP299 hIgG1/K mut (antibody, V domains shown, Tested as IgG; also called h5F9.AM9; H5F9AM.9) VH: EVQLVESGGGVVQPGRSLRLSCAASGFTFSNYGMNWVRQAPGKGLEWVAMIYYDSSEKHYADSVKGRFTISRDNSKNTLYLQMNSLRAEDTAVYYCARGTTPDYWGQGTMVTVSS VL: DVVLTQSPLSLPVTLGQPASISCRSSQSLADSDGDTFLHWFQQRPGQSPRLLIYAVSHRFSGVPDRFSGSGSGTDFTLKISRVEAEDVGVYYCFQATHDPVTFGQGTKLEIK
